The record followed here is paper PMC12721901.

By UniProt entry, the sequences of proteins in these tests, tags left out.
UniProt Q61188: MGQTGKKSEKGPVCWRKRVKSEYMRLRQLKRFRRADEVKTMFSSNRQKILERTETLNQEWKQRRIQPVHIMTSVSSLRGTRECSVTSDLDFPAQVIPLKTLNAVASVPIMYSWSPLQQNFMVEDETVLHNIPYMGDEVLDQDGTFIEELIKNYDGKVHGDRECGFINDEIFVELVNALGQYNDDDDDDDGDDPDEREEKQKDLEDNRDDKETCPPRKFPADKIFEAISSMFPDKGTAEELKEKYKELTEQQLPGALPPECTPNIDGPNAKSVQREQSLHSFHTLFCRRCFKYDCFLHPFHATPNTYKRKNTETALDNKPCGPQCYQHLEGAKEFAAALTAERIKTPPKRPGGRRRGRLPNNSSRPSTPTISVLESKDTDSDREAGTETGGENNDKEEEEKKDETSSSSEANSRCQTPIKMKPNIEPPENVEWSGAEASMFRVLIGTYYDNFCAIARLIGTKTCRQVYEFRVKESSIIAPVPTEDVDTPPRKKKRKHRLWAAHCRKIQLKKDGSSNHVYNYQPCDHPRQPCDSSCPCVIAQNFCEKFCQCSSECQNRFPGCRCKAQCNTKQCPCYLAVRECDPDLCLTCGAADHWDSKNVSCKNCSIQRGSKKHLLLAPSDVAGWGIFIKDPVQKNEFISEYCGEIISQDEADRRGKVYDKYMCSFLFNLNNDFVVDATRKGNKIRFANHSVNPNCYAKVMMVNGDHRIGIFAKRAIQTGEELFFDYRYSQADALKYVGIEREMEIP
UniProt Q15910: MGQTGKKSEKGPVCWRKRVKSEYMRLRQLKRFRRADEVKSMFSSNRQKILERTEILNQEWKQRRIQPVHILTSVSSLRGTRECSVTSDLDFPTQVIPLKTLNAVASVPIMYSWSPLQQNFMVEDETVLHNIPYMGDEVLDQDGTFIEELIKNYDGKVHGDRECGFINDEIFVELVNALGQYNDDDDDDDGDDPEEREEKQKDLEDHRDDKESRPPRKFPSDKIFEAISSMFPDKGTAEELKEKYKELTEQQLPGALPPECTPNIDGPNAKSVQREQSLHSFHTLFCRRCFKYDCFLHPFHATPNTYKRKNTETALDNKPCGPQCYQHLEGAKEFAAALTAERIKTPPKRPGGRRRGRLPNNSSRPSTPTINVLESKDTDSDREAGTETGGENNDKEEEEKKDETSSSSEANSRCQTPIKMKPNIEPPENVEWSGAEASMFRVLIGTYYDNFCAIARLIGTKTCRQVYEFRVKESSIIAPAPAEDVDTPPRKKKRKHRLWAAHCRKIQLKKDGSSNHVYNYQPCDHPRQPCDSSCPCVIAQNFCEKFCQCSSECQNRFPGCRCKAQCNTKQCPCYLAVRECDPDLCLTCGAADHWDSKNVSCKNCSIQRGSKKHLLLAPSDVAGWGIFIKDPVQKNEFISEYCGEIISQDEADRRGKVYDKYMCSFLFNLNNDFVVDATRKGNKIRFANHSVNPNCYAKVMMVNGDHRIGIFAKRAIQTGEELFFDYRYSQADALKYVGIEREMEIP

Results are given in words; binding and its absence hold for the method and conditions named. In cells and extracts the contact can be indirect. Some results given as binding are weak or reduced against the parent protein; the word gives no strength. For some assays here: Tags and fused reporters may be left off the sequences shown.

Experiment [1] deals with T1, USP22 (endogenous, mouse tumor cells) (mouse (endogenous in RM1 and MC38)) (UniProt Q5DU02).
T1 sequence: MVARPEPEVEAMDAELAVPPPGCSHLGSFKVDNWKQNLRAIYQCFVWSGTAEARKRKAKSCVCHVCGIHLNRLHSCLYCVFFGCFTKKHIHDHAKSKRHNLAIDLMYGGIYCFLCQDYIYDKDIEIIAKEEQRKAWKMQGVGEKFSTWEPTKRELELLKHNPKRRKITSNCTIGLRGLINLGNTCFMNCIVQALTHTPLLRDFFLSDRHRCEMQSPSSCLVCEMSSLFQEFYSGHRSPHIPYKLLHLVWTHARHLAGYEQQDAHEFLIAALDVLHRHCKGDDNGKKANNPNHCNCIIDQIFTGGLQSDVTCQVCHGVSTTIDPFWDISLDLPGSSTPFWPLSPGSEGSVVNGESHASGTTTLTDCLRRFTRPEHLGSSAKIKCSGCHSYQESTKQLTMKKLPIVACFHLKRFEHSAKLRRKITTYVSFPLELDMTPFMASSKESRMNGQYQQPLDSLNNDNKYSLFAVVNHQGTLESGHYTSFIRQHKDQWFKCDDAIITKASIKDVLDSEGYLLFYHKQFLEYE
The experiment in a line: co-IP; endogenous proteins; anti-EZH2 and, reciprocally, anti-USP22 immunoprecipitates from lysates of RM1 and MC38 cells, immunoblot. On the technique in general: A western blot detects proteins with antibodies after separation by electrophoresis.

Another experiment has as its target T2, GST-USP22 (UniProt Q9UPT9).
T2 sequence: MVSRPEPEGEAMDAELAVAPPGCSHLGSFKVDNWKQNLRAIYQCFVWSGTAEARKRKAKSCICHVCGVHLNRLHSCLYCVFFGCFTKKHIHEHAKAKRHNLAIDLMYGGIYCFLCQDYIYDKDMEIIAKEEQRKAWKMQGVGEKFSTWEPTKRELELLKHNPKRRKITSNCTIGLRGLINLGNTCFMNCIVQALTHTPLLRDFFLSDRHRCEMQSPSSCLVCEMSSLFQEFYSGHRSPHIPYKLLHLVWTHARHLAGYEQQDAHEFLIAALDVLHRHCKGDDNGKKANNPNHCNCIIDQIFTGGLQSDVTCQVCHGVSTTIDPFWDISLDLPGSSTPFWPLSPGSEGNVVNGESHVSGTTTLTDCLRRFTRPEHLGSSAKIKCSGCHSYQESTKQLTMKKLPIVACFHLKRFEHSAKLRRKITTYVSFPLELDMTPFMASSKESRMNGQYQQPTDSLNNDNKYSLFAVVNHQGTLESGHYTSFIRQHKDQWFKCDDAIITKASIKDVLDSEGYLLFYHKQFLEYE
The experiment in a line: pull-down; recombinant GST or GST-USP22 purified from bacteria, incubated with 4T1 cell lysate overnight; bound proteins by immunoblot; only the target purified.

The target in experiment [2] is EZH2 (endogenous, mouse tumor cells) (mouse (endogenous in RM1, MC38 and 4T1)) (UniProt Q61188). Kind of experiment: co-IP; endogenous proteins; anti-EZH2 and, reciprocally, anti-USP22 immunoprecipitates from lysates of RM1 and MC38 cells, immunoblot.
In another experiment the target is Flag-tagged EZH2 (UniProt Q15910). Kind of experiment: co-IP; transiently transfected HEK-293T cells (Myc-USP22 or its mutants with FLAG-EZH2), immunoblot.

Turning to “EZH2 (endogenous, mouse tumor cells) (from UniProt Q61188 1-746) (enzyme)”, the binding entry (in experiment [1]; with GST-USP22) was “binds” each time.

B1: USP22 (endogenous, mouse tumor cells) (enzyme, UniProt Q5DU02 1-525)
chain: MVARPEPEVEAMDAELAVPPPGCSHLGSFKVDNWKQNLRAIYQCFVWSGTAEARKRKAKSCVCHVCGIHLNRLHSCLYCVFFGCFTKKHIHDHAKSKRHNLAIDLMYGGIYCFLCQDYIYDKDIEIIAKEEQRKAWKMQGVGEKFSTWEPTKRELELLKHNPKRRKITSNCTIGLRGLINLGNTCFMNCIVQALTHTPLLRDFFLSDRHRCEMQSPSSCLVCEMSSLFQEFYSGHRSPHIPYKLLHLVWTHARHLAGYEQQDAHEFLIAALDVLHRHCKGDDNGKKANNPNHCNCIIDQIFTGGLQSDVTCQVCHGVSTTIDPFWDISLDLPGSSTPFWPLSPGSEGSVVNGESHASGTTTLTDCLRRFTRPEHLGSSAKIKCSGCHSYQESTKQLTMKKLPIVACFHLKRFEHSAKLRRKITTYVSFPLELDMTPFMASSKESRMNGQYQQPLDSLNNDNKYSLFAVVNHQGTLESGHYTSFIRQHKDQWFKCDDAIITKASIKDVLDSEGYLLFYHKQFLEYE
On to B1, for which the binding entry in experiment [2] was “binds”.

B2: Myc-tagged USP22 (enzyme, UniProt Q9UPT9 1-525)
chain: MVSRPEPEGEAMDAELAVAPPGCSHLGSFKVDNWKQNLRAIYQCFVWSGTAEARKRKAKSCICHVCGVHLNRLHSCLYCVFFGCFTKKHIHEHAKAKRHNLAIDLMYGGIYCFLCQDYIYDKDMEIIAKEEQRKAWKMQGVGEKFSTWEPTKRELELLKHNPKRRKITSNCTIGLRGLINLGNTCFMNCIVQALTHTPLLRDFFLSDRHRCEMQSPSSCLVCEMSSLFQEFYSGHRSPHIPYKLLHLVWTHARHLAGYEQQDAHEFLIAALDVLHRHCKGDDNGKKANNPNHCNCIIDQIFTGGLQSDVTCQVCHGVSTTIDPFWDISLDLPGSSTPFWPLSPGSEGNVVNGESHVSGTTTLTDCLRRFTRPEHLGSSAKIKCSGCHSYQESTKQLTMKKLPIVACFHLKRFEHSAKLRRKITTYVSFPLELDMTPFMASSKESRMNGQYQQPTDSLNNDNKYSLFAVVNHQGTLESGHYTSFIRQHKDQWFKCDDAIITKASIKDVLDSEGYLLFYHKQFLEYE
For B2, the binding result in the experiment with Flag-tagged EZH2 was “binds”.

B3: Myc-USP22 C185A (catalytically inactive) (enzyme, UniProt Q9UPT9 1-525)
chain: MVSRPEPEGEAMDAELAVAPPGCSHLGSFKVDNWKQNLRAIYQCFVWSGTAEARKRKAKSCICHVCGVHLNRLHSCLYCVFFGCFTKKHIHEHAKAKRHNLAIDLMYGGIYCFLCQDYIYDKDMEIIAKEEQRKAWKMQGVGEKFSTWEPTKRELELLKHNPKRRKITSNCTIGLRGLINLGNTAFMNCIVQALTHTPLLRDFFLSDRHRCEMQSPSSCLVCEMSSLFQEFYSGHRSPHIPYKLLHLVWTHARHLAGYEQQDAHEFLIAALDVLHRHCKGDDNGKKANNPNHCNCIIDQIFTGGLQSDVTCQVCHGVSTTIDPFWDISLDLPGSSTPFWPLSPGSEGNVVNGESHVSGTTTLTDCLRRFTRPEHLGSSAKIKCSGCHSYQESTKQLTMKKLPIVACFHLKRFEHSAKLRRKITTYVSFPLELDMTPFMASSKESRMNGQYQQPTDSLNNDNKYSLFAVVNHQGTLESGHYTSFIRQHKDQWFKCDDAIITKASIKDVLDSEGYLLFYHKQFLEYE
On to B3, for which, in the experiment with Flag-tagged EZH2, the binding result is “binds”.
